Melting temperature shift data for 95 targets are collected here from the supplement of paper PMC10060354, “Discovery of a small molecule ligand of FRS2 that inhibits invasion and tumor growth” (Cellular Oncology, 2022).

Amino acid sequences for entries named in this document (tags omitted). A change or cut given only in a name is not applied to a line headed by its entry.
UniProt Q9UDT6: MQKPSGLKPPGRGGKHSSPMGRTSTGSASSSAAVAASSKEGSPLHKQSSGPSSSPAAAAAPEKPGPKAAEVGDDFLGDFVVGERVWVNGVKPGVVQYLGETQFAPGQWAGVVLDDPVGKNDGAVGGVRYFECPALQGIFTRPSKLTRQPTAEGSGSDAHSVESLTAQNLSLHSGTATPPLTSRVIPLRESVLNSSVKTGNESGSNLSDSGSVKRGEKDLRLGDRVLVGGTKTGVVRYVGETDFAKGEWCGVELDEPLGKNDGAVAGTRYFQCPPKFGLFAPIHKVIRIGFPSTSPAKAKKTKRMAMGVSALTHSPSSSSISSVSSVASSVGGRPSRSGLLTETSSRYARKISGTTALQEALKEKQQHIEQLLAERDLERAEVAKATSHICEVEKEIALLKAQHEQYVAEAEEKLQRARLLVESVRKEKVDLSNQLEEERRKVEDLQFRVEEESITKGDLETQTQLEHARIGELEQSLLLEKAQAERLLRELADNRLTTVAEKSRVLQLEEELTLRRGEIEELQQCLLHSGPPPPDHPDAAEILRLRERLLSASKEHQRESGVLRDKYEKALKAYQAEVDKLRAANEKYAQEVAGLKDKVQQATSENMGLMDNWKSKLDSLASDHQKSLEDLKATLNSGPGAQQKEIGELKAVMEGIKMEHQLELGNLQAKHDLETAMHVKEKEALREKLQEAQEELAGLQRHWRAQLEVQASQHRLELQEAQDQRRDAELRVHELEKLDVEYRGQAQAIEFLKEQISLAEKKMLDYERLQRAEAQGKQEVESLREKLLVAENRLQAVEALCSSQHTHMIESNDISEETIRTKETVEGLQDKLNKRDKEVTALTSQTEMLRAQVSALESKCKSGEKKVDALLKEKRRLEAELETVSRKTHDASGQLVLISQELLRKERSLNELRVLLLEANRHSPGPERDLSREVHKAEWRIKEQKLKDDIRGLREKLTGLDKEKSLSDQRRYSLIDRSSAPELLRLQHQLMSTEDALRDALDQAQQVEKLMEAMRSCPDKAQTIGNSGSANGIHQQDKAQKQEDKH
UniProt Q9H553: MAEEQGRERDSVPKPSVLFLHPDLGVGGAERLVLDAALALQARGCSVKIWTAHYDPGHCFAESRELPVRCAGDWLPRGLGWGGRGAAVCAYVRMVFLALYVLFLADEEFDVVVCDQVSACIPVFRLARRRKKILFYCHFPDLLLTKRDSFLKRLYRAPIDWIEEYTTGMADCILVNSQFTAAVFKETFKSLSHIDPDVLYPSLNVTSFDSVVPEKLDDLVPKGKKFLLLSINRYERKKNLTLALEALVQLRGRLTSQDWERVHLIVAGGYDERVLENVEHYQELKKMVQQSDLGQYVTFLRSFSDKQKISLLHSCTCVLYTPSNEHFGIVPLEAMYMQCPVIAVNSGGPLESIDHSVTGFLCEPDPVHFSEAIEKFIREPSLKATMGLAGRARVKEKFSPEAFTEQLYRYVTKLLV
UniProt Q8IWB9: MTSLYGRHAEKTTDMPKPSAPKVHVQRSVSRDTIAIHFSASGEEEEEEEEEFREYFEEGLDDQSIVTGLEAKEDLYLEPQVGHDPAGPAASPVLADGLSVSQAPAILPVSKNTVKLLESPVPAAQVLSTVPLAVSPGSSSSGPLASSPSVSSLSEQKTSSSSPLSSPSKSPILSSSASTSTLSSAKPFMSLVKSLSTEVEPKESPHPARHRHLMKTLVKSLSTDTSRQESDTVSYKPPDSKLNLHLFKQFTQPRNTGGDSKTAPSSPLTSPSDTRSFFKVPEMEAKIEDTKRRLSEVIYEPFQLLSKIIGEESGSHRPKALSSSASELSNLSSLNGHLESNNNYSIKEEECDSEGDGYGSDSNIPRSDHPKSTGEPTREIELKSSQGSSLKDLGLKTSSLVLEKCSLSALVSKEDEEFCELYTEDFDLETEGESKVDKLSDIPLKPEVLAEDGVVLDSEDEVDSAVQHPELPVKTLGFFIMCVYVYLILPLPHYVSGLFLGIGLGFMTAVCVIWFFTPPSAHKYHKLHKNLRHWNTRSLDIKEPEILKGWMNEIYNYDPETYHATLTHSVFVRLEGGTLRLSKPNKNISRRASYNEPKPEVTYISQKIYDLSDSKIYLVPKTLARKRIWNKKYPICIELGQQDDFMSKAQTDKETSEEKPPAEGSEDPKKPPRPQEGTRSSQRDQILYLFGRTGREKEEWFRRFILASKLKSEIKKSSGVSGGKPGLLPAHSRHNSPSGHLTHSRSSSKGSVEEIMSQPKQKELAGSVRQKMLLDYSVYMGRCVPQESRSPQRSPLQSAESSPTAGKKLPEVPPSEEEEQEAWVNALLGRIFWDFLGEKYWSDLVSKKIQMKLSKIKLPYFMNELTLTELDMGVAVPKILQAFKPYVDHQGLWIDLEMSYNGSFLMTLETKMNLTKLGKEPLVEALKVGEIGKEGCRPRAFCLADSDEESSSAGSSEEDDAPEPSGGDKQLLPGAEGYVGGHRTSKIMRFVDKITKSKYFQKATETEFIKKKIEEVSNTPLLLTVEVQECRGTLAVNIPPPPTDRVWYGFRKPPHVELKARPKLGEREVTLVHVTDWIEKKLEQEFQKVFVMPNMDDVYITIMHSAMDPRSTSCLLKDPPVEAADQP
UniProt Q8WWF6: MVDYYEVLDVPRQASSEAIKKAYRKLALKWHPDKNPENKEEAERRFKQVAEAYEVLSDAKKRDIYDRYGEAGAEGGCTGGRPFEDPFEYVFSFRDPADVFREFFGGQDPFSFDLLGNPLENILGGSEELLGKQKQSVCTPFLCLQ
UniProt Q7L9B9: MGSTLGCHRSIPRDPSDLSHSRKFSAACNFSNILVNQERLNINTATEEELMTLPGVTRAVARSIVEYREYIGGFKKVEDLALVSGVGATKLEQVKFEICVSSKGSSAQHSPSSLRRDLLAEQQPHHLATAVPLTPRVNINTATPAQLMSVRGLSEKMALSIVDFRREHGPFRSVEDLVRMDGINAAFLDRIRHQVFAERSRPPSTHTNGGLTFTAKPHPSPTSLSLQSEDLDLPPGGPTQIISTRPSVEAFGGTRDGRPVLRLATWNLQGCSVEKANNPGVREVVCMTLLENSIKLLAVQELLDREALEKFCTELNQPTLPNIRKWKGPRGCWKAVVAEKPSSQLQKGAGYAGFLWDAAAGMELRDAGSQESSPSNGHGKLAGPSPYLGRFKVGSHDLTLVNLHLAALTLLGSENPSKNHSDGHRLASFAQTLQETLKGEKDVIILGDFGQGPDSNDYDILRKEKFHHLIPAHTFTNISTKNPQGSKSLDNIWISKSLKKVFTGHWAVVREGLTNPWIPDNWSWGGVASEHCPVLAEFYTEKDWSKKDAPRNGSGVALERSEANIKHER
UniProt Q15185: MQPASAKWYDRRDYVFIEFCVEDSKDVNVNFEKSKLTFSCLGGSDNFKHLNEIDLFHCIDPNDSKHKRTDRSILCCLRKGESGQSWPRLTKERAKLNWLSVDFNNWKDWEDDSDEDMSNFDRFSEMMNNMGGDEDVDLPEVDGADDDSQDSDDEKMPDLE
UniProt Q9UBW7: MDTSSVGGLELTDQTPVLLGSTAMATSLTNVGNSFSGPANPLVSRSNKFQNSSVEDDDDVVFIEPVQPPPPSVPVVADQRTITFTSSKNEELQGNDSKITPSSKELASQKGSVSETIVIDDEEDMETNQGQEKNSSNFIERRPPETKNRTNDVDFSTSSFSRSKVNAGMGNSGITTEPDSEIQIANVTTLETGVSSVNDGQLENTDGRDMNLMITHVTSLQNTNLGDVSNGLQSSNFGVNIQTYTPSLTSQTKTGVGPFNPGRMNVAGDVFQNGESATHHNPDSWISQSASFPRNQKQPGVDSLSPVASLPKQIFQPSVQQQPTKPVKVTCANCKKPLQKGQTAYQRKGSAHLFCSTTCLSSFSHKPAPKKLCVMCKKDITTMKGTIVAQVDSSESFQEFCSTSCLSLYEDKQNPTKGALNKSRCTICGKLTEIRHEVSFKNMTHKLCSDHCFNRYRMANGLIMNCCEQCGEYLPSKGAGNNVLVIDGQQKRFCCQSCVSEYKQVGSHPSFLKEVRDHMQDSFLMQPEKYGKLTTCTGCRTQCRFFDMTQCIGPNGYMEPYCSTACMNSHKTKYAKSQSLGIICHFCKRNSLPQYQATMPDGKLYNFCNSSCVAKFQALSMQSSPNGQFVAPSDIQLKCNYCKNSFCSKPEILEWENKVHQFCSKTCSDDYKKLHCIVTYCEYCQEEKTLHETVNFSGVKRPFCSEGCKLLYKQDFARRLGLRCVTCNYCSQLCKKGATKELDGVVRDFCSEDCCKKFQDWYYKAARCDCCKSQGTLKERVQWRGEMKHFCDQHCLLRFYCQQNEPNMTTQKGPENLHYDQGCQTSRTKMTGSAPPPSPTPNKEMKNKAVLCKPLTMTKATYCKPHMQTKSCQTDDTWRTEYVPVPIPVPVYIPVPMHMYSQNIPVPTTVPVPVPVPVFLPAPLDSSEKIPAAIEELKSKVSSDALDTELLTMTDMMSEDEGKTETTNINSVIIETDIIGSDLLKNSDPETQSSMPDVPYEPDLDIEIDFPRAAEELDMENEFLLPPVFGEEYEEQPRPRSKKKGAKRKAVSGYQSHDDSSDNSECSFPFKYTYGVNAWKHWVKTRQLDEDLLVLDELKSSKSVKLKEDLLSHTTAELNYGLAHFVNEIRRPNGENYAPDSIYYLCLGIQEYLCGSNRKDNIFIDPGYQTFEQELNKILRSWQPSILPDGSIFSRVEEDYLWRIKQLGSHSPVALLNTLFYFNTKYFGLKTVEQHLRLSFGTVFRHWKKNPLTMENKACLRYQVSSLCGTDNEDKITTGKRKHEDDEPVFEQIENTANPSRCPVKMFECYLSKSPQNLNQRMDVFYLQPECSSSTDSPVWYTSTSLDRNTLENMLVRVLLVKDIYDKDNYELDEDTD
UniProt Q01995: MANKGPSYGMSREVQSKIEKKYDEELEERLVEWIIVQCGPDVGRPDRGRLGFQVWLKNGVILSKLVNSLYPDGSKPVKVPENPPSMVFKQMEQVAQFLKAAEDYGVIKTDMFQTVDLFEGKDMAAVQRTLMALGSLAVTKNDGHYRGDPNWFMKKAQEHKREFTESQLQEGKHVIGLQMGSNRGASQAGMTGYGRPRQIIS
UniProt Q9BQS8: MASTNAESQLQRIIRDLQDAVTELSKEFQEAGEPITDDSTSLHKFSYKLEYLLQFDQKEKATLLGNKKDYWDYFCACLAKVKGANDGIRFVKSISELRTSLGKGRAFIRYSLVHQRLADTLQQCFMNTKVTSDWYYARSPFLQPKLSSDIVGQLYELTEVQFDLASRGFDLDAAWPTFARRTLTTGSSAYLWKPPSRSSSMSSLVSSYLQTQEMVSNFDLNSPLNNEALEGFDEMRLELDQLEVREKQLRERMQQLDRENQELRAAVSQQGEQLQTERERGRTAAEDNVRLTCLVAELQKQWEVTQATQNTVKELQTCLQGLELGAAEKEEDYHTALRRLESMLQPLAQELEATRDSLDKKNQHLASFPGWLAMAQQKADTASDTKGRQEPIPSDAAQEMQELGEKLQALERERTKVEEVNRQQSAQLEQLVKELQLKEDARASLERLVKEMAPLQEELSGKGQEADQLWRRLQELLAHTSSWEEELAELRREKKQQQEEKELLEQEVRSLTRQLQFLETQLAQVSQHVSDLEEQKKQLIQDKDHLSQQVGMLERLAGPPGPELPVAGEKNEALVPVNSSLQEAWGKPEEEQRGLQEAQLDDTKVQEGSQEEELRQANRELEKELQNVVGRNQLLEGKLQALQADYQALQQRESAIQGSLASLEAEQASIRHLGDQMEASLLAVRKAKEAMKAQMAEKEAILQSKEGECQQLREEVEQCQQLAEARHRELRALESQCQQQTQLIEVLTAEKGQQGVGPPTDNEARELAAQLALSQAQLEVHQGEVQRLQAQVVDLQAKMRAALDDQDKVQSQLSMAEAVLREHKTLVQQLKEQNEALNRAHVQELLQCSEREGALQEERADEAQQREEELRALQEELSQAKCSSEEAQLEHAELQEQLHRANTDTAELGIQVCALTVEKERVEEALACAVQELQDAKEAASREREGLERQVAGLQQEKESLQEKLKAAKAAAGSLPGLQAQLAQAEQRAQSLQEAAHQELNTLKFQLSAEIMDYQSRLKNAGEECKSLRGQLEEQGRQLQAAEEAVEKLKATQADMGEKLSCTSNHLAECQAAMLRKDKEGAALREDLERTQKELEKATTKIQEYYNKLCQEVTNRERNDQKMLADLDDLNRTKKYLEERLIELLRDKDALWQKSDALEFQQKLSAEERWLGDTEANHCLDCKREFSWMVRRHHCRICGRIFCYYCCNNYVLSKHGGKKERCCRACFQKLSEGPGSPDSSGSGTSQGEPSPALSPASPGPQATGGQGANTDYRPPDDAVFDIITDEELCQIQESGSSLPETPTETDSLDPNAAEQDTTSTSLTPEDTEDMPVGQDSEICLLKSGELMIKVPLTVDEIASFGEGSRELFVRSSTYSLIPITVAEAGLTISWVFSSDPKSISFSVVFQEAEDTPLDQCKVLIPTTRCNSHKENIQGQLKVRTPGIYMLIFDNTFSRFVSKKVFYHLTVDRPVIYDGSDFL

Compound in this test: [O-][N+](C(C1=C(C(O)=C2)NC(C(C=C3)=CC=C3Cl)C4C1C=CC4)=C2Cl)=O
Put plainly: melting temperature shift (compound 7 minus DMSO); higher = compound stabilises the protein. As to conditions: 10 µM. The protocol:
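Thermal proteome profiling (TMT mass spectrometry) in intact DAOY medulloblastoma cells or DAOY lysates treated with 10 µM compound 7 or DMSO, heated at 10 temperatures from 40.5 to 73.8 °C for 3 min. Melting curves were fitted with the Bioconductor TPP package, and the melting point difference between compound and vehicle is reported per protein (single curve per condition).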

Where [1] appears, read: system: DAOY cell lysate, treatment time: 20 min, 4 °C.
The mark [2] stands for this setting: system: intact DAOY cells, treatment time: 90 min, 37 °C.

Single values are uncertain, as repeats are few or missing.

With MGAT1 (UniProt P26572), the melting temperature shift under setting [1] was 1.97 °C. Turning to LPCAT1 (UniProt Q8NF37), the melting temperature shift is 0.851 °C under setting [1] and -1.29 °C under setting [2]. With UniProt Q96RF0, the melting temperature shift is, setting by setting: under setting [1], 0.693 °C; under setting [2], 0.627 °C. UniProt Q5TZA2: the melting temperature shift by setting is: under setting [1], -0.0389 °C; under setting [2], 0.0589 °C. As to ELAVL2 (UniProt Q12926), the melting temperature shift under setting [2] is -1.34 °C. For UniProt Q9BZG1, the melting temperature shift was 0.0264 °C under setting [1] and -0.506 °C under setting [2]. With CD46 (UniProt P15529), the melting temperature shift under setting [2] is 0.514 °C. In the case of TOR3A (UniProt Q9H497), the melting temperature shift under setting [1] came out at 0.738 °C and the melting temperature shift under setting [2] is 0.563 °C. Taken in the same sequence, the figures for RPS8 (UniProt P62241) were -0.153 °C and -0.914 °C. Consider UniProt Q6A555, for which, under setting [1], the melting temperature shift was -0.492 °C. On the same count and under the same terms, the value for KCTD9 (UniProt Q7L273) was -0.706 °C. Turning to PRDX5 (UniProt P30044), the melting temperature shift was 0.171 °C under setting [1] and -0.768 °C under setting [2].

UNC45A (UniProt Q9H3U1): the melting temperature shift by setting is: under setting [1], -0.219 °C; under setting [2], -0.632 °C. In the case of VWA9 (UniProt Q96SY0), the melting temperature shift by setting is: under setting [1], -0.0135 °C; under setting [2], -0.614 °C. For UniProt Q14168, the melting temperature shift under setting [1] came to 0.497 °C. As to RPL8 (UniProt P62917), under setting [2], the melting temperature shift was -0.428 °C. As to CLIP2 (UniProt Q9UDT6), the melting temperature shift under setting [1] was determined as 0.13 °C and the melting temperature shift under setting [2] turned out to be 0.25 °C. The corresponding values for DNAJC13 (UniProt O75165) are 0.407 °C and 0.491 °C. Consider TUBA1C (UniProt Q9BQE3), for which the melting temperature shift runs as follows: under setting [1], -0.524 °C; under setting [2], -0.58 °C. Taken in the same sequence, the figures for TRRAP (UniProt Q9Y4A5) were 0.519 °C and 0.152 °C. For DOCK10 (UniProt Q96BY6), the melting temperature shift by setting is: under setting [1], 0.146 °C; under setting [2], 0.408 °C.

In the case of ASAH1 (UniProt Q13510), the melting temperature shift under setting [1] stood at 1.14 °C. Regarding VCL (UniProt P18206), the melting temperature shift under setting [2] is 0.118 °C. Turning to DPYSL2 (UniProt Q16555), the melting temperature shift runs as follows: under setting [1], -0.739 °C; under setting [2], -0.701 °C.

As for MRM3 (UniProt Q9HC36), the melting temperature shift under setting [2] is -0.626 °C. In the case of ARHGAP12 (UniProt Q8IWW6), the melting temperature shift under setting [1] is -1.31 °C. For the target RNF5 (UniProt Q99942), the melting temperature shift runs as follows: under setting [1], 1.41 °C; under setting [2], 0.398 °C. For RBBP9 (UniProt O75884), the melting temperature shift under setting [1] is -0.557 °C.

Take ALG2 (UniProt Q9H553): under setting [2], the melting temperature shift is -0.741 °C. Take TEX2 (UniProt Q8IWB9): the melting temperature shift under setting [1] was found to be 0.826 °C.

For the target HSPG2 (UniProt P98160), under setting [1], the melting temperature shift is -1.58 °C. In the case of IQGAP2 (UniProt Q13576), the melting temperature shift under setting [2] was -0.876 °C. For RPL36 (UniProt Q9Y3U8), the melting temperature shift by setting is: under setting [1], 0.531 °C; under setting [2], -0.715 °C. Taken in the same sequence, the figures for KIAA1524 (UniProt Q8TCG1) were -1.03 °C and 0.268 °C.

For YTHDF2 (UniProt Q9Y5A9), the melting temperature shift is -0.0658 °C under setting [1] and 0.379 °C under setting [2]. As for PSPH (UniProt P78330), the melting temperature shift is 1.83 °C under setting [1] and -4.2 °C under setting [2].

On to AP5Z1 (UniProt O43299), for which the melting temperature shift is, setting by setting: under setting [1], -0.91 °C; under setting [2], -0.38 °C. With CIC (UniProt Q96RK0), the melting temperature shift under setting [1] was 1.22 °C. As to UniProt Q8IUS5, the melting temperature shift under setting [2] was -2.36 °C. Take NFU1 (UniProt Q9UMS0): the melting temperature shift runs as follows: under setting [1], 0.733 °C; under setting [2], -0.58 °C. Taken in the same sequence, the figures for IGF1R (UniProt P08069) were 2.65 °C and -0.0133 °C. The corresponding values for KBTBD2 (UniProt Q8IY47) are -0.0137 °C and -1.11 °C.

As for SLK (UniProt Q9H2G2), the melting temperature shift was -0.246 °C under setting [1] and 0.118 °C under setting [2]. Taken in the same sequence, the figures for UniProt P49840 were -0.439 °C and -0.367 °C.

Consider RPRD2 (UniProt Q5VT52), for which the melting temperature shift was -0.958 °C under setting [1] and 0.207 °C under setting [2]. Taken in the same sequence, the figures for CD70 (UniProt P32970) were 1.46 °C and 0.653 °C.

Turning to LEMD3 (UniProt Q9Y2U8), the melting temperature shift reads like this: under setting [1], -4.7 °C; under setting [2], -0.127 °C. On to UniProt O95170, for which the melting temperature shift under setting [2] was 7.23 °C. On to ABHD14B (UniProt Q96IU4), for which the melting temperature shift reads like this: under setting [1], -0.618 °C; under setting [2], 0.434 °C. With MESDC2 (UniProt Q14696), the melting temperature shift is 0.725 °C under setting [1] and 0.356 °C under setting [2]. The corresponding values for UniProt Q9UBX3 are 1.3 °C and 0.709 °C. As for CHMP1B (UniProt Q7LBR1), under setting [1], the melting temperature shift is -0.909 °C.

With SMC6 (UniProt Q96SB8), the melting temperature shift runs as follows: under setting [1], 0.264 °C; under setting [2], 0.1 °C. Turning to UniProt Q02952, the melting temperature shift under setting [1] was -1.9 °C. Turning to UniProt Q8WWF6, the melting temperature shift under setting [2] was -0.5 °C. For UniProt Q15406, the melting temperature shift under setting [2] was -0.531 °C. As to UniProt Q96C23, the melting temperature shift under setting [1] was -0.587 °C and the melting temperature shift under setting [2] was -0.195 °C.

For POLE (UniProt Q07864), the melting temperature shift under setting [1] is -0.994 °C.

In the case of ENY2 (UniProt Q9NPA8), the melting temperature shift under setting [1] is -1.18 °C. Take SRP54 (UniProt P61011): the melting temperature shift under setting [1] is -0.24 °C and the melting temperature shift under setting [2] is -0.759 °C. Take UniProt O43516: under setting [1], the melting temperature shift is 0.354 °C. Turning to UniProt Q7L9B9, the melting temperature shift under setting [1] turned out to be 1.86 °C. SERPINB1 (UniProt P30740): the melting temperature shift runs as follows: under setting [1], -0.255 °C; under setting [2], 0.547 °C. UniProt O60234: the melting temperature shift under setting [2] is -5.79 °C. For MKI67 (UniProt P46013), the melting temperature shift reads like this: under setting [1], 0.858 °C; under setting [2], 1.16 °C.

In the case of TEAD1 (UniProt P28347), under setting [2], the melting temperature shift is 1.96 °C. For FAH (UniProt P16930), the melting temperature shift under setting [1] was -1.77 °C. Still for that read-out and setting: the value for UniProt A2A2Y4 was -2.11 °C. With TMEM30A (UniProt Q9NV96), the melting temperature shift under setting [2] was -0.525 °C. In the case of USP19 (UniProt O94966), the melting temperature shift reads like this: under setting [1], 0.598 °C; under setting [2], 0.271 °C. For TANC2 (UniProt Q9HCD6), the melting temperature shift under setting [1] turned out to be 0.707 °C. For PTGES3 (UniProt Q15185), the melting temperature shift reads like this: under setting [1], -0.177 °C; under setting [2], 0.104 °C.

For ZMYM2 (UniProt Q9UBW7), the melting temperature shift under setting [1] was determined as 0.189 °C. Turning to UniProt Q9NU23, the melting temperature shift reads like this: under setting [1], -0.859 °C; under setting [2], -0.548 °C.

With RPL35A (UniProt P18077), the melting temperature shift is 0.501 °C under setting [1] and -0.791 °C under setting [2]. Take ACACA (UniProt Q13085): the melting temperature shift was -0.576 °C under setting [1] and 0.133 °C under setting [2].

Regarding UniProt Q96A05, under setting [2], the melting temperature shift turned out to be 1.01 °C. Regarding REL (UniProt Q04864), the melting temperature shift under setting [1] is -1.37 °C.

As for TAGLN (UniProt Q01995), the melting temperature shift runs as follows: under setting [1], -0.952 °C; under setting [2], 0.00474 °C.

Take UniProt Q5BKY9: the melting temperature shift under setting [2] was -1.33 °C.

Turning to UniProt Q8NHM5, the melting temperature shift under setting [1] was 0.674 °C. As for TMEM2 (UniProt Q9UHN6), the melting temperature shift was -0.797 °C under setting [1] and -3.27 °C under setting [2].

As for UniProt Q9BWJ5, the melting temperature shift runs as follows: under setting [1], -0.174 °C; under setting [2], 0.558 °C.

Consider UniProt Q2TB10, for which the melting temperature shift under setting [1] stood at 0.768 °C. PRKACG (UniProt P22612): the melting temperature shift under setting [2] is -0.602 °C. For NME3 (UniProt Q13232), the melting temperature shift by setting is: under setting [1], -1.66 °C; under setting [2], 4.48 °C.

With ZYG11B (UniProt Q9C0D3), the melting temperature shift under setting [1] is -1.27 °C and the melting temperature shift under setting [2] was -0.665 °C.

Turning to OSBPL3 (UniProt Q9H4L5), the melting temperature shift under setting [1] is 0.629 °C and the melting temperature shift under setting [2] is 1.07 °C. The corresponding values for PPP1R8 (UniProt Q12972) are 0.0631 °C and -1.03 °C. On to EIF2S3 (UniProt P41091), for which the melting temperature shift was 0.15 °C under setting [1] and -0.331 °C under setting [2]. On to MYO1B (UniProt O43795), for which the melting temperature shift was 0.661 °C under setting [1] and -0.335 °C under setting [2]. In the case of FYCO1 (UniProt Q9BQS8), the melting temperature shift is, setting by setting: under setting [1], -0.3 °C; under setting [2], -0.0945 °C. Taken in the same sequence, the figures for UniProt Q8TCA0 were -0.983 °C and -0.712 °C. GK (UniProt P32189): the melting temperature shift by setting is: under setting [1], -0.735 °C; under setting [2], -0.728 °C. Consider RPL5 (UniProt P46777), for which the melting temperature shift under setting [1] came to 0.222 °C and the melting temperature shift under setting [2] was -0.514 °C.
